# Test results taken from PubChem BioAssay AID540256 (National Center for Advancing Translational Sciences (NCATS), 2011).
# The campaign covered roughly 300,000 compounds. About 3,700 (1.2%) were called active. The inconclusive results got no clear call from the source; some entries with a clear call stand among them for comparison. Calls come from the whole dose curve; tested in HEK293 cells. Where the call is inconclusive, the potency comes from a doubtful curve fit.
# Test: qHTS for Inhibitors of binding or entry into cells for Lassa Virus; note: nearly all actives have a fitted effect of over 50% in size
# Details: Lassa virus pseudotype entry inhibition, cell reporter; activity change, negative = inhibition: at 37.9 µM (top of the series) unless noted
# % is set by controls: 0 for no effect and ±100 for the full control effect; potency is the fitted concentration of half-maximal effect.
Compound,"activity change, negative = inhibition",Potency
O=C(Nc1cccc(Cl)c1)OCCOCCOC(=O)Nc1cccc(Cl)c1,inactive: -12.2% [at 46.1 µM],
CCOc1cc(CNCCO)cc(Br)c1OCc1ccccc1,,"inconclusive: 35.5 µM [inhibitor, single point]"
COCCNC(=O)C1CCC(CNS(=O)(=O)c2ccc3c(c2)CC(C)N3C(=O)C2CC2)CC1 (stereo not drawn),inactive: 5.75% [at 46.1 µM],
C=CCNC(=O)c1cccc(NS(=O)(=O)c2ccc(Cl)cc2)c1,,"inconclusive: 35.5 µM [inhibitor, single point]"
O=C(NNC(=O)c1ccccc1O)c1ccc(Cl)c(S(=O)(=O)N2CCc3ccccc32)c1,,"inconclusive: 11.2 µM [inhibitor, single point]"
COc1ccccc1NS(=O)(=O)c1cc(NC(=O)c2ccc3c(c2)OCCO3)ccc1C,,"inconclusive: 7.31 µM [inhibitor, partial curve, poor fit]"
CCN(CC)C1=NC=CC(c2ccccc2)=CC1C (stereo not drawn),inactive: 5.67%,
Cc1cccc(N(CC(=O)NCCSCc2ccccc2)S(=O)(=O)c2ccccc2)c1C,,"inconclusive: 25.1 µM [inhibitor, single point]"
COC(=O)c1c(C)[nH]c(C(=O)C(C)OC(=O)C2CC2)c1C (stereo not drawn),inactive: -5.82%,
Cc1ccc(NC(=O)CN2CCC(C(=O)c3ccc4c(c3)OCCO4)CC2)cc1,,"inconclusive: 29.1 µM [activator, partial curve, poor fit]"
COc1ccc(S(=O)(=O)NCC(c2ccco2)N2CCN(c3ccc(F)cc3)CC2)cc1 (stereo not drawn),,"inconclusive: 28.2 µM [inhibitor, partial curve, poor fit]"
Cc1nc2c(-c3ccc(Cl)cc3)cnn2c2c1CCC2,,"inconclusive: 7.94 µM [activator, partial curve, poor fit]"
Cn1nc(-c2ccccc2F)c2cc(C(=O)Nc3cc(F)ccc3F)sc21,,"inconclusive: 6.31 µM [inhibitor, single point]"
O=C(c1cnc2c(c1)COc1ccccc1-2)c1ccccc1O,,"inconclusive: 35.5 µM [inhibitor, single point]"
NCCc1nnc(SCc2c(F)cccc2Cl)o1,,"inconclusive: 8.2 µM [inhibitor, partial curve]"
COc1ccc(S(=O)(=O)N2CCN(c3ccccc3)CC2)cc1-c1noc(C)n1,,"inconclusive: 35.5 µM [activator, single point]"
COC(=O)c1ccc(NC(=O)N2CCN(c3nnc(C)c4c(C)n(-c5ccccc5)nc34)CC2)cc1,inactive: 1.35% [at 46.1 µM],
COc1ccc(S(=O)(=O)N2CCN(Cc3cccs3)CC2)cc1OC,inactive: -21.2%,
O=C(Nc1cccc(Cl)c1)C1CCN(S(=O)(=O)Cc2ccccc2)CC1,inactive: -7.53% [at 46.1 µM],
O=C(c1ccccc1)N1C(=O)C(c2ccccc2)Oc2ccccc21 (stereo not drawn),,"inconclusive: 8.91 µM [inhibitor, single point]"
Cc1cc(Oc2ccccc2)nc(-c2ccccc2)n1,inactive: 11.6%,
C=CCNS(=O)(=O)c1ccc2c(c1)n(C)c(=O)n2C,,"inconclusive: 22.4 µM [inhibitor, single point]"
COC(=O)c1ccc2nc(NC(=O)C(C)C)sc2c1,,"inconclusive: 31.6 µM [inhibitor, single point]"
Cc1cccc(NC(=O)Nc2cccc(Oc3c(F)c(F)c(F)c(F)c3F)c2)c1,,"inconclusive: 6.51 µM [inhibitor, partial curve]"
CC(=O)Nc1ccccc1NC(=O)C/C(C)=N/NC(=O)c1ccncc1,inactive: 10.7%,

Compound,"activity change, negative = inhibition",Potency
O=C(N/N=C/c1ccc2c(c1)OCO2)c1ccc(Cn2cc([N+](=O)[O-])cn2)o1,,"inconclusive: 9.2 µM [activator, partial curve]"
COc1ccc(C(C(=O)NC(C)(C)C)N(C(=O)CCC(=O)Nc2cc(C)on2)c2c(C)cccc2C)cc1 (stereo not drawn),,"inconclusive: 28.2 µM [inhibitor, partial curve, poor fit]"
OC1(c2ccc(OC(F)F)cc2)CSC(=Nc2cccnc2)N1Cc1ccco1 (stereo not drawn),,"inconclusive: 10 µM [inhibitor, partial curve, poor fit]"
O=C(c1cc(-c2ccc(Cl)c(Cl)c2)on1)N1CCOCC1,,"inconclusive: 12.6 µM [activator, partial curve, poor fit]"
CCOC(=O)c1cccc(OCC(O)CNCCOc2ccccc2F)c1 (stereo not drawn),inactive: 3.11% [at 46.1 µM],
Cc1cccc2c(=O)cc(CSCC(=O)Nc3ccc(Cl)cc3)[nH]c12,inactive: -2.85% [at 46.1 µM],
O=C(NC12CC3CC(CC(C3)C1)C2)c1cccc(OC(F)F)c1,,"inconclusive: 0.794 µM [inhibitor, partial curve, poor fit]"
Clc1ccc(SCCCCN2CCNCC2)cc1,,"inconclusive: 6.51 µM [inhibitor, single point]"
Cc1cc(C(=O)Cn2cnc3ccccc3c2=O)c(C)n1C1CC1,inactive: 14.6% [at 46.1 µM],
O=C(CN1C(=O)C2CCCCC2C1=O)Nc1cccc(C(F)(F)F)c1 (stereo not drawn),inactive: 16.6%,
N#Cc1ccccc1Cn1cc(C(=O)C2CC2)c2ccccc21,,"inconclusive: 29.1 µM [inhibitor, single point]"
CN1/C(=C\C=C(/C#N)C(=O)Nc2ccccc2F)C(C)(C)c2ccccc21,,"inconclusive: 0.501 µM [inhibitor, partial curve, poor fit]"
COc1ccccc1CNC(=O)c1n[nH]c2ccccc12,inactive: 14%,
COc1ccc(-c2nc(-c3ccccc3)c(-c3cc([N+](=O)[O-])ccc3C)[nH]2)cc1OC,,"inconclusive: 8.91 µM [inhibitor, partial curve, poor fit]"
COc1ccc(Cc2nc3ccc(C(=O)NCCc4ccc(OC)c(OC)c4)cc3o2)cc1,,"inconclusive: 35.5 µM [inhibitor, single point]"
O=C(Nc1nnc(Cc2ccccc2)s1)c1ccco1,,"inconclusive: 6.51 µM [activator, single point]"
COc1cccc(NC(=O)CN(C)C(=O)CNC(=O)c2ccc(Oc3ccccc3)cc2)c1,inactive: 4.48% [at 46.1 µM],
C=C(C)C1CC=C(C)/C(=N/NC(=O)c2ccc(NC(=O)CCC)cc2)C1 (stereo not drawn),,"inconclusive: 13 µM [inhibitor, partial curve]"
O=C(Nc1cc(Cl)ccc1Cl)c1ccc(-c2ccccc2)cc1,inactive: 13.8%,
Cc1cc(=O)n2[nH]c(NCc3c(F)cccc3Cl)nc2n1,inactive: -7.16%,
CCOC(=O)Cn1c(=O)n(C2CCCCC2)c2nc(-c3ccc(OC)cc3)nc(C(N)=O)c21,inactive: -5.16% [at 46.1 µM],
O=C1CC(=O)N(c2ccc(Cl)cc2)C(=O)N1,,"inconclusive: 4.47 µM [activator, single point]"
Cc1cccc(NC(=O)c2ccc(OCc3c(C)noc3C)cc2)c1C,,"inconclusive: 2 µM [inhibitor, full curve]"
Nc1cc(=O)[nH]c(SCc2cccc(Cl)c2)n1,inactive: -0.616%,
Cc1ccc(-c2nc(P(=O)(c3ccccc3)c3ccccc3)c(N3CCOCC3)o2)cc1,,"inconclusive: 11.6 µM [inhibitor, partial curve, poor fit]"

Compound,"activity change, negative = inhibition",Potency
COc1ccc(C2CC(=O)c3cc(-c4nc(-c5cccc([N+](=O)[O-])c5)cs4)c(=O)n(-c4ccc(F)cc4)c3C2)cc1 (stereo not drawn),inactive: -4.82% [at 46.1 µM],
N/C(CN1CCCC1=O)=N\O,inactive: -6.97%,
CCCc1nnc(NC(=O)CC(=O)Nc2ccccc2C(=O)O)s1,,"inconclusive: 10 µM [inhibitor, partial curve]"
COc1cc(/C=C(\C#N)c2nc3ccccc3[nH]2)cc(Br)c1OCc1ccc(F)cc1,,"inconclusive: 10 µM [inhibitor, partial curve, poor fit]"
Nc1nncn1C(=O)c1ccccc1Cl,,"inconclusive: 0.0041 µM [activator, full curve, poor fit]"
O=C(CCC1CCCC1)NCc1cccs1,inactive: 4.34%,
Cc1ccc2oc(-c3cccc(NC(=O)c4ccc(N5CCC(C)CC5)c([N+](=O)[O-])c4)c3)nc2c1,inactive: -5.82% [at 46.1 µM],
Cc1cccc(C(=O)NNC(=O)c2cccc(C)c2)c1,inactive: 21.4%,
CC(=O)c1ccc(NC(=O)C2CCCN(C(=O)c3ccc(Cl)cc3)C2)cc1 (stereo not drawn),inactive: 2.12%,
Fc1ccc(NC(=S)NCCN2CCOCC2)c(F)c1F,inactive: 10.8%,
Cn1c(=O)[nH]c(=O)c2c1nc(N1CCc3ccccc3C1)n2CCSc1nc2ccccc2s1,inactive: 18.2%,
Cc1cccc(COCC(Cc2ccccc2)N2CCN(C(=O)c3cc(Cl)cc(Cl)c3)CCC2=O)c1 (stereo not drawn),,"inconclusive: 9.2 µM [inhibitor, partial curve, poor fit]"
O=C(COc1ccc(Cl)cc1)NNC(=O)c1ccccn1,inactive: -22.8%,
CCCCNC(=O)C1CCN(c2nc3ccc(C)cc3[nH]2)CC1,inactive: 15.3% [at 46.1 µM],
CCOc1ccc(-c2nc(C#N)c(NC3CC3)o2)cc1,inactive: 1.8%,
Clc1ccc(Cn2ccc(-c3ccc4c(c3)OCO4)n2)cc1Cl,,"inconclusive: 20.6 µM [activator, partial curve, poor fit]"
COC(=O)c1ccc(Cc2ccc(C(=O)OC)o2)o1,inactive: -0.667%,
CC(C)c1ccc(CN(Cc2ccco2)c2cnc(S(C)(=O)=O)nc2C(=O)Nc2ccccc2)cc1,inactive: -23.4% [at 46.1 µM],
COc1ccc(N2CCN(C(CNC(=O)C(=O)NC3CC3)c3ccco3)CC2)cc1 (stereo not drawn),,"inconclusive: 0.316 µM [activator, partial curve, poor fit]"
Cc1sc(NC(=O)c2ccc(F)cc2)c(CN2CCCCCC2)c1C,,"inconclusive: 2.06 µM [activator, partial curve]"
Cc1ccccc1CS(=O)(=O)c1cnc2ccccc2n1,,"inconclusive: 20 µM [inhibitor, partial curve, poor fit]"
CO/N=C/NC(=O)c1c(OC)ccnc1Oc1cccc(C(F)(F)F)c1,inactive: 10.3%,
CN(C)c1ccc(C(=O)OCC(=O)NCCC2=CCCCC2)cc1,,"inconclusive: 11.2 µM [inhibitor, partial curve, poor fit]"
